From article PMC2288786 (BMC Structural Biology, 2008)

Tested on: calmodulin
Experiment: Small-angle X-ray scattering of free CaM and complex
Parameters: species or system vertebrate
Conditions: SAXS, 5-fold molar excess of peptide in complex samples

calmodulin [CaM]
Dmax, maximum size (GNOM): 7.0 ± 0.5 nm | Rg, radius of gyration (Guinier approximation): 2.22 ± 0.05 nm | Vp, excluded volume: 34 ± 2 nm^3
